Measurements published in PubChem BioAssay AID2685 (National Center for Advancing Translational Sciences (NCATS), 2010).
Some of the results follow. The main result of the screen is listed elsewhere. These columns were measured beside it and carry no call. Most of these compounds were active or inconclusive in the main read-out, so they are no random draw. Words in brackets tell the shape of the fitted curve; partial curves, single points and poor fits give uncertain potencies.

Experiment: qHTS Assay for Lipid Storage Modulators in Drosophila S3 Cells;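 on cell number change: cells counted by Cell Tracker Red CMTPX staining in the red channel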
Conditions: BODIPY lipid droplet fluorescence, 18-24 h; for cell number change: measured here: cell count max response, cells fed with added oleic acid
In short: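 Drosophila S3 cells got compounds at several concentrations plus oleic acid (400 uM solution). Laser-scanning cytometry with 488 nm excitation read lipid droplets at 500-530 nm and cells at 575-640 nm. Percent activity was relative to 20 uM Triacsin C.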

[1] = measured here: lipid fluorescence (Fed channel) AC50, cells fed with added oleic acid
[2] = measured here: cell number channel AC50, cells fed with added oleic acid

With `CN(C)CC(C)(C)CNS(=O)(=O)c1cccc(Cl)c1Cl` the cell number change was -7.53%.

In the case of `CCOc1ccccc1N(C(=O)c1ccccc1Cl)C1=NC(C)(C)CS1`, the cell number change was -1.37%.

For `CC(=O)c1ccc(N2CCN(C(=O)[C@H](C)NC(=O)c3ccccc3Cl)CC2)cc1`, the cell number change was 21.7% and the AC50 [1] was 23.1 µM [rising, single point].

With `CC(=O)Nc1ccc(NC(=S)NC(=O)/C=C/c2ccco2)cc1` the AC50 [1] was 2.59 µM [falling, full curve].

For `O=C(COC(=O)C1CCN(S(=O)(=O)c2cccs2)CC1)Nc1ccc(F)c(F)c1F`, the AC50 [1] was 14.6 µM [rising, partial curve].

`Cc1sc(NC(=O)c2cccs2)nc1-c1ccccc1` gave a cell number change of -16.9%.

Molecule `O=C(N/N=C/c1cccs1)C1COc2ccccc2O1` (centres undefined) has a cell number change of 41%.

In the case of `NC(=O)C1(N2CCCCC2)CCN(C(=O)CSc2nc(C(F)(F)F)cc(=O)[nH]2)CC1`, the cell number change was -39.2% and the AC50 [1] was 0.184 µM [falling, full curve].

With `COc1ccc(/C=C/c2nc(N)nc(-c3ccccc3O)n2)cc1OC` the cell number change was -70%, the AC50 [2] was 5.8 µM [falling, partial curve] and the AC50 [1] was 0.82 µM [rising, full curve].

For `COc1cc(CNCc2ccc(Br)cc2)cc(OC)c1`, the cell number change was -24.3% and the AC50 [1] was 29.1 µM [falling, single point].

In the case of `CC1=NN(C(=O)Cc2ccc([N+](=O)[O-])cc2)C(O)(c2ccccc2)C1` (centres undefined), the cell number change was 9.32% and the AC50 [1] was 11.6 µM [rising, partial curve].

`CN1CCN(c2ncnc3c2cnn3-c2ccc(Cl)cc2)CC1` gave a cell number change of -1.01%.

For `NCCCC[C@H](NC(=O)C1CCNCC1)c1nnc([C@@H](N)Cc2ccc(O)cc2)o1`, the cell number change was -10.9% and the AC50 [2] was 0.651 µM [falling, partial curve, poor fit].

With `Cc1sc2nc(SCC(=O)N(CCO)CCO)n(C3CCCCC3)c(=O)c2c1C` the cell number change was 2.44% and the AC50 [1] was 29.1 µM [falling, single point].

In the case of `Cc1ccc(NC(=O)CSc2nc(=O)n(Cc3ccncc3)c3c2CCC3)c(C)c1`, the cell number change was 8.72% and the AC50 [1] was 29.1 µM [rising, single point].

With `COC(=O)c1cc(C#N)c(SCc2ccccc2)nc1C` the cell number change was 42.8%, the AC50 [2] was 2.06 µM [rising, full curve] and the AC50 [1] was 7.31 µM [rising, partial curve].

Molecule `CN1C(=O)Cc2cc(S(=O)(=O)NCc3c(F)cccc3Cl)ccc21` has a cell number change of 4.35%.

In the case of `CCCCc1cc(=O)oc2cc(C)cc(OCC(=O)Nc3cccnc3)c12`, the cell number change was 14.9%.

In the case of `CCCC(=O)N1CCN(c2nnc(-c3ccccc3)c3ccccc23)CC1`, the cell number change was 10.9% and the AC50 [1] was 0.116 µM [falling, full curve, poor fit].

For `CC1(C)N=C(SCC(=O)Nc2ccc(Cl)cc2)C(c2ccccc2)=N1`, the cell number change was 42.1%, the AC50 [2] was 6.51 µM [rising, full curve] and the AC50 [1] was 14.6 µM [rising, partial curve].

With `COCCNc1nnc(SCC(=O)NNC(=O)c2ccccc2)s1` the cell number change was 24.8% and the AC50 [1] was 0.651 µM [falling, partial curve].

In the case of `COc1cc(C)c(C(C)C)cc1S(=O)(=O)N1CCN(C)CC1`, the cell number change was -1.12% and the AC50 [1] was 5.8 µM [falling, partial curve].

In the case of `Cc1ccccc1NC(=O)Cn1c(=O)n(C)c2ccccc21`, the cell number change was 25.7% and the AC50 [1] was 0.164 µM [rising, full curve].

Molecule `O=C(O)/C=C/C(=O)NC1CCCCC1` has a cell number change of -2.98%.

With `Cc1ccc(-c2nnn(CC(=O)N(c3cnc4ccccc4c3)C(C(=O)NC3CCCC3)c3ccncc3)n2)o1` (centres undefined) the cell number change was 0.406%, the AC50 [2] was 2.59 µM [rising, single point] and the AC50 [1] was 4.11 µM [rising, single point].

With `CS(=O)(=O)Nc1ccc(C(=O)NCC2CCCO2)cc1` (centres undefined) the cell number change was 5.06% and the AC50 [1] was 0.92 µM [falling, full curve, poor fit].

In the case of `CCOC(=O)C1=C(CC)Nc2ccccc2N/C1=N\S(=O)(=O)c1ccccc1F`, the cell number change was -7.1% and the AC50 [1] was 2.06 µM [rising, partial curve, poor fit].

In the case of `Cn1c(SCC(=O)c2ccc3c(c2)NC(=O)CO3)nc2ccccc21`, the cell number change was -4.46% and the AC50 [1] was 0.116 µM [rising, partial curve, poor fit].

For `Cc1noc(C)c1COc1ccc(C(=O)N2CCN(S(=O)(=O)c3ccccc3)CC2)cc1`, the cell number change was 8.23% and the AC50 [1] was 6.51 µM [rising, single point].

For `O=C(O)c1c(F)c(F)c(F)c(F)c1-c1ccc(Cl)cc1`, the cell number change was -44.1%, the AC50 [2] was 29.1 µM [falling, single point] and the AC50 [1] was 23.1 µM [falling, partial curve].

For `Cc1nc(SCC(=O)N(CC(C)C)C2CCS(=O)(=O)C2)c(C#N)c(C)c1C` (centres undefined), the cell number change was 55.8% and the AC50 [2] was 18.4 µM [rising, single point].

In the case of `CN(CC(=O)Nc1ccc(F)cc1)C(=O)COC(=O)CNC(=O)c1sc2ccccc2c1Cl`, the cell number change was -19.2% and the AC50 [2] was 1.84 µM [falling, partial curve, poor fit].

In the case of `S=C(NCC(c1cccnc1)N1CCOCC1)NC1CCCCC1` (centres undefined), the cell number change was -12.9% and the AC50 [2] was 6.51 µM [falling, single point].

For `COc1ccccc1NC(=S)NC(=O)CC(C)C`, the cell number change was -12.7% and the AC50 [1] was 29.1 µM [falling, single point].

With `CCOC(=O)c1cccc(NC(=O)CS(=O)(=O)Cc2nc(-c3cccc(OC)c3)oc2C)c1` the AC50 [2] was 2.91 µM [rising, single point] and the AC50 [1] was 6.51 µM [rising, single point].

With `CCCNc1c(N)n(-c2ccccc2)c(=O)[nH]c1=O` the cell number change was -11.3%, the AC50 [2] was 5.17 µM [falling, single point] and the AC50 [1] was 0.00517 µM [rising, full curve, poor fit].

In the case of `Nc1nc(NCc2ccco2)nc(N2CCCC2)c1[N+](=O)[O-]`, the cell number change was 12.7%, the AC50 [2] was 1.46 µM [rising, partial curve, poor fit] and the AC50 [1] was 2.06 µM [rising, partial curve, poor fit].

In the case of `Cc1cc(C(=O)NCc2ccco2)sc1C`, the cell number change was 0.907% and the AC50 [1] was 0.00461 µM [falling, full curve, poor fit].

For `COc1cc2c(cc1OC)/C(=C/C(=O)c1ccccc1F)NCC2`, the AC50 [1] was 2.91 µM [rising, single point].
